Test results: paper doi:10.1101/2025.07.29.665963
Positions count from the first letter of the chain named. These are yes or no findings as the source states them, for the method shown. Binding seen in cells or lysates may run through a third protein. Some entries that bind do so weakly or less than the wild type. Sequences can lack the tags named with a protein.

Sequences of proteins named here, by UniProt entry; tags and fusion partners are left off.
UniProt P50750: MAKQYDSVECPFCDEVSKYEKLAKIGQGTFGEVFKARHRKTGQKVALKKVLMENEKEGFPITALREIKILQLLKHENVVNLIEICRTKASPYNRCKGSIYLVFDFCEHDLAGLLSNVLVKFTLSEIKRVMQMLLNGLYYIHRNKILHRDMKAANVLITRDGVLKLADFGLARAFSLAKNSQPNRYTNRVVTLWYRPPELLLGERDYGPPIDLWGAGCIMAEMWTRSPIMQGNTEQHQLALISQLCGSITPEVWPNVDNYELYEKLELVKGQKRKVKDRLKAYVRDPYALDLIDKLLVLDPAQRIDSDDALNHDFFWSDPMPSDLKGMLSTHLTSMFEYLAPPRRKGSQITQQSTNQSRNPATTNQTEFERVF
UniProt O00472: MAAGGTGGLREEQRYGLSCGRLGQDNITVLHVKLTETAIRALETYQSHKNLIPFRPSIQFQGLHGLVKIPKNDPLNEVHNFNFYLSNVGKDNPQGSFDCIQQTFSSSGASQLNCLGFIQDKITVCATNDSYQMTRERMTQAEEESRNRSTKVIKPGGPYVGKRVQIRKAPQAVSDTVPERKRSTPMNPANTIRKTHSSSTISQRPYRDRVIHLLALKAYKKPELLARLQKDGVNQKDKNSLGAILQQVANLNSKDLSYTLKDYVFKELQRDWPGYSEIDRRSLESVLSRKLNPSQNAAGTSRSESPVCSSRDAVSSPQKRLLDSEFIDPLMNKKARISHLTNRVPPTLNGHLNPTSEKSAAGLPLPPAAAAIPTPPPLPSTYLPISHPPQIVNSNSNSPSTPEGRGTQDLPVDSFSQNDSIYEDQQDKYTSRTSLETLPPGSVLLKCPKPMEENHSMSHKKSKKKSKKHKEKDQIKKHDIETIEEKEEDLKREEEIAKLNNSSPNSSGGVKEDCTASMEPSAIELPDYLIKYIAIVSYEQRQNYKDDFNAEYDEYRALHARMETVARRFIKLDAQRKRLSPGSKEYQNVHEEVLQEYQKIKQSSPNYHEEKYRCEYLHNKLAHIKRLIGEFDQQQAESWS

What was measured:
[1] = target: T1, FLAG-ENL-T1-3A (human) (UniProt Q03111); assay: co-IP
T1 sequence: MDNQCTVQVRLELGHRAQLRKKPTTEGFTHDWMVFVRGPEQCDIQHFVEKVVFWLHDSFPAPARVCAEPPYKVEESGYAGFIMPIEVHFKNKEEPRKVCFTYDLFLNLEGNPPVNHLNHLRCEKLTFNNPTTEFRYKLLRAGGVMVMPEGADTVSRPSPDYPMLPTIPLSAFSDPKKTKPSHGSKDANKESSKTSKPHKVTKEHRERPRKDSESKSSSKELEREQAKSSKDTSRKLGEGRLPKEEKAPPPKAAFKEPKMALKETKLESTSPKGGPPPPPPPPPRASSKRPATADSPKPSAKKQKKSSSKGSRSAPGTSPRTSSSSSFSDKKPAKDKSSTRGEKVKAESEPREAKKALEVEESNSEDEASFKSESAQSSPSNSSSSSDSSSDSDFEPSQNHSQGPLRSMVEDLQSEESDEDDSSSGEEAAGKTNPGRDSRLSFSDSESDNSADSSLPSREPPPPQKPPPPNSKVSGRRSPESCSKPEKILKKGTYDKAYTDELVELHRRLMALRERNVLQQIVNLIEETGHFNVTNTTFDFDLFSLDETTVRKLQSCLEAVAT

[2] = target: T2, FLAG-ENL-T1 (human) (UniProt Q03111); assay: co-IP
T2 sequence: T1 sequence with A61K, A63R, A67K

| binding [1] | binding [2] | Substance |
| --- | --- | --- |
| binds | binds | CDK9 (from UniProt P50750 1-372) |
| binds | binds | ELL2 (from UniProt O00472 1-640) |
